In patent US6881547B1, “Methods and reagents for treating autoimmune disorders” (priority 2001, dated 2005):
Results are given in words; binding and its absence hold for the method and conditions named. Some binding calls cover weakened binding; strength is not graded here. For part of these data: Sequences can lack the tags named with a protein.

Sequences of proteins named here, by UniProt entry; tags and fusion partners are left off. A change or cut given only in a name is not applied to a line headed by its entry.
UniProt Q01955: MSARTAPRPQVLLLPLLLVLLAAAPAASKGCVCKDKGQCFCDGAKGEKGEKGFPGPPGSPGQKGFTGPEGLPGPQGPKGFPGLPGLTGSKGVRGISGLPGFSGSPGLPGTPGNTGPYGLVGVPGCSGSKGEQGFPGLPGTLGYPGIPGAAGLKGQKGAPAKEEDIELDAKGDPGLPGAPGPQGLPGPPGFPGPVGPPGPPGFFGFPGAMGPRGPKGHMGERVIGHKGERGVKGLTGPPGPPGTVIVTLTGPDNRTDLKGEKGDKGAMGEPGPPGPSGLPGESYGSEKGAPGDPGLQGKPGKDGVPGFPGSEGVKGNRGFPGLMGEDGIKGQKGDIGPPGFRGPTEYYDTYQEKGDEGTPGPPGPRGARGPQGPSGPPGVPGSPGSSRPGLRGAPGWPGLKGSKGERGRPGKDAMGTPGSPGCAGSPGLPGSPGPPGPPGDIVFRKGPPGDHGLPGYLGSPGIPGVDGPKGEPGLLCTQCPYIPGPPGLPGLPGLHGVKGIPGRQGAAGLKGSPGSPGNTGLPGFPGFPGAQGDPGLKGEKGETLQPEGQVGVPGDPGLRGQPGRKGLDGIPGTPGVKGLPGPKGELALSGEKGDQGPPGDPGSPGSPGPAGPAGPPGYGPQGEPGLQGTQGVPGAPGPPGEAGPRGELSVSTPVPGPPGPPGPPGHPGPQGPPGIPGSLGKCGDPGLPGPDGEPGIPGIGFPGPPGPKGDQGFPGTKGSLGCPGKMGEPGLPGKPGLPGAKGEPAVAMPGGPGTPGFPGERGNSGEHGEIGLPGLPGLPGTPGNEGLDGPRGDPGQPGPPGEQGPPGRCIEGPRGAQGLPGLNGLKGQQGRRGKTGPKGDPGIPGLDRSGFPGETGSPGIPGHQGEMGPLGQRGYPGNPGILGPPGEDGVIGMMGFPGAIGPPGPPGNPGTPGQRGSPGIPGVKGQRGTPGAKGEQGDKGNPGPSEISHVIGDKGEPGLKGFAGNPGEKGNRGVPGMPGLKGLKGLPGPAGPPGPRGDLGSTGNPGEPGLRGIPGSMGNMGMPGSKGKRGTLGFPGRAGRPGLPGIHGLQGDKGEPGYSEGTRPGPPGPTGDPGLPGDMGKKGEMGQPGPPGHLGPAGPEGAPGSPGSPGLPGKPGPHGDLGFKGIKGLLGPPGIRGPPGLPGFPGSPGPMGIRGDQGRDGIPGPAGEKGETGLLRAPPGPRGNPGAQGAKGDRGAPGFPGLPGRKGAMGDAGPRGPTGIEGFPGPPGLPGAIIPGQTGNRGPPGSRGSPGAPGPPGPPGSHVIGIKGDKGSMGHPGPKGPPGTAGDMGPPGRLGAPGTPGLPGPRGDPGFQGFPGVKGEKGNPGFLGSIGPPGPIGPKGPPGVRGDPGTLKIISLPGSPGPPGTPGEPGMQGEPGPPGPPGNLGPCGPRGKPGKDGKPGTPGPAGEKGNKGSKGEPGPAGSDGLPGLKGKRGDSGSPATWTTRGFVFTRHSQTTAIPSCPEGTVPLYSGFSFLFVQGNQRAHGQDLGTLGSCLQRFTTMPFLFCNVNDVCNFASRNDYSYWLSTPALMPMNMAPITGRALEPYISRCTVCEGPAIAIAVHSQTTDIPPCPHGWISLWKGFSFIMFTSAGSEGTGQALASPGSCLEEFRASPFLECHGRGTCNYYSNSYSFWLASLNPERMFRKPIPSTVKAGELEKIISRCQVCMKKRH

What was measured:
[1] = biological target: 22-25-kDa conformers of the native human α3(IV)NC1 domain (human) (UniProt Q01955); assay: far-Western
[2] = biological target: 22-25-kDa conformers of the native human α3(IV)NC1 domain (human) (UniProt Q01955); assay: far-Western (fα3 binding)
[3] = biological target: α3(IV)NC1 domain of GP patient kidneys (human) (UniProt Q01955); assay: far-Western, α-FLAG detection
[4] = biological target: 22-25-kDa conformers of the native human α3(IV)NC1 domain (human) (UniProt Q01955); assay: far-Western on in-blot renatured human monomers, α-FLAG detection
[5] = biological target: 22-25-kDa conformers of the native human α3(IV)NC1 domain (human) (UniProt Q01955); assay: far-Western on in-blot renatured human monomers, 30 ng/µl fα3, α-FLAG detection
[6] = biological target: 22-25-kDa conformers of the native human α3(IV)NC1 domain (human) (UniProt Q01955); assay: disulfide-based oligomerization assay, non-oligomerized fα3 detected with α-FLAG
[7] = biological target: 27-kDa conformer of the native human α3(IV)NC1 domain (human) (UniProt Q01955); assay: as above
[8] = biological target: Human recombinant GP antigen (rGP) produced in 293 cells (human) (UniProt Q01955); assay: filter overlay
[9] = biological target: Human recombinant GP antigen (rGP) produced in 293 cells (human) (UniProt Q01955); assay: told again of Example 1 (filter overlay with the HeLa1 fusion protein)

Measured: binding

recombinant FLAG-tagged human α3(IV)NC1 (fα3) (from UniProt Q01955 1427-1670)
binds: [1] | [2] | [3] | [4] | [5] | [6] | [7]

B1: β-galactosidase-derived fusion protein of clone HeLa1 containing the N-terminal 150 residues of GPBP (protein, not shown: large carriers)
chain: MSDNQSWNSSGSEEDPETESGPPVERCGVLSKWTNYIHGWQDRWVVLKNNALSYYKSEDETEYGCRGSICLSKAVITPHDFDECRFDISVNDSVWYLRAQDPDHRQQWIDAIEQHKTESGYGSESSLRRHGSMVSLVSGASGYSATSTSS
binds: [8] | [9]
